Reference: PMC5966407
Changes are numbered by the printed parent chain. No constants are given. Whether binding was seen depends on the method and setting. Some binding calls cover weakened binding; strength is not graded here. Sequences can lack the tags named with a protein.

What was measured:
Test in all cases: two-hybrid; RAD1 variants in pGBKT7, RAD10 and SLX4 in pGADT7; plasmids in opposite mating types, mated to diploids
[1] = molecular target: T1, rad1-E349K in pGBKT7 (two-hybrid fusion) (S. cerevisiae) (UniProt P06777)
T1 sequence: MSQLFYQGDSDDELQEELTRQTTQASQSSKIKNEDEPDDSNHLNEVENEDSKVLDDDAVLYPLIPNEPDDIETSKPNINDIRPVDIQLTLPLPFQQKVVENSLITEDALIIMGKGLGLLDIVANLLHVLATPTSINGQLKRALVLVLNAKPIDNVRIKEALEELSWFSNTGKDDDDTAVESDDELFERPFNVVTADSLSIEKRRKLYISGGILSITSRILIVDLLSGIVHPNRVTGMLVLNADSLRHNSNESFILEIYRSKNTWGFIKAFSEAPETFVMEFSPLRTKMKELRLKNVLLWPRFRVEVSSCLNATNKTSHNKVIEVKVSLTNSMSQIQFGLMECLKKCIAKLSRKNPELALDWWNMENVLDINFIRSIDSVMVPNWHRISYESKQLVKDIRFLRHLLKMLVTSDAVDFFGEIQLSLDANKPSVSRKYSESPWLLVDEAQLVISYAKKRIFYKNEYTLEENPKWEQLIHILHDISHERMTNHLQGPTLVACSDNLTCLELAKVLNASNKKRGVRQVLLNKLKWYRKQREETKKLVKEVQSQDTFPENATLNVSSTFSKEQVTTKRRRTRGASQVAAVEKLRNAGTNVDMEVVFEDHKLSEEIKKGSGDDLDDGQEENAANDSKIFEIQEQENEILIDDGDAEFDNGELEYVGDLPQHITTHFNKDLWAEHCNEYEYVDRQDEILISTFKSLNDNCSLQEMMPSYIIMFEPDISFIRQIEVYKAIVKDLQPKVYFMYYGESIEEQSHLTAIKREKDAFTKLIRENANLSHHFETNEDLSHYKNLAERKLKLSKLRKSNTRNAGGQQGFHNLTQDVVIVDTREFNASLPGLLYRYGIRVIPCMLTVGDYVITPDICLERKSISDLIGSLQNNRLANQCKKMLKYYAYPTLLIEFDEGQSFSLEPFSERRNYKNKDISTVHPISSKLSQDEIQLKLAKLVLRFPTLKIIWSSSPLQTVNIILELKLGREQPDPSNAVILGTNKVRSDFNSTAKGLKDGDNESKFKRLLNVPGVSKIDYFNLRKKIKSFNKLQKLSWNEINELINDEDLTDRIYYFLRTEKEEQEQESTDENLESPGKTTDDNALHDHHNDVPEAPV

[2] = molecular target: T2, rad1-E706K in pGBKT7 (two-hybrid fusion) (S. cerevisiae) (UniProt P06777)
T2 sequence: T1 sequence with K349E, E706K

[3] = molecular target: T3, Rad1 in pGBKT7 (two-hybrid fusion) (S. cerevisiae) (UniProt P06777)
T3 sequence: T1 sequence with K349E

Measured: binding

Slx4 in pGADT7 (two-hybrid fusion) (from UniProt Q12098 1-748)
binds: [1] | [2] | [3]
